# Measured values as given in the supplement of paper PMC10849652.
# Chains of the proteins cited; added tags and fusions are not shown. Lines headed by an entry give the natural chain unless they say otherwise; changes in a name come on top.
# UniProt Q9HC07: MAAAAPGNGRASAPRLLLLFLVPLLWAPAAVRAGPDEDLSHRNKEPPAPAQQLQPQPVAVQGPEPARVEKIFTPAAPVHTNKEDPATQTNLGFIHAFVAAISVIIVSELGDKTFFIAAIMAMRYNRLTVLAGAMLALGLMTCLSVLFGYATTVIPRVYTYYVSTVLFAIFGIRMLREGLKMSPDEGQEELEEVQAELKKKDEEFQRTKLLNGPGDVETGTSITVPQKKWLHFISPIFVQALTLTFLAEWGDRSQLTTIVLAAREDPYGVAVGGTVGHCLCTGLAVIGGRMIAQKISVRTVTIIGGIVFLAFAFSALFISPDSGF
# UniProt Q8NDZ6: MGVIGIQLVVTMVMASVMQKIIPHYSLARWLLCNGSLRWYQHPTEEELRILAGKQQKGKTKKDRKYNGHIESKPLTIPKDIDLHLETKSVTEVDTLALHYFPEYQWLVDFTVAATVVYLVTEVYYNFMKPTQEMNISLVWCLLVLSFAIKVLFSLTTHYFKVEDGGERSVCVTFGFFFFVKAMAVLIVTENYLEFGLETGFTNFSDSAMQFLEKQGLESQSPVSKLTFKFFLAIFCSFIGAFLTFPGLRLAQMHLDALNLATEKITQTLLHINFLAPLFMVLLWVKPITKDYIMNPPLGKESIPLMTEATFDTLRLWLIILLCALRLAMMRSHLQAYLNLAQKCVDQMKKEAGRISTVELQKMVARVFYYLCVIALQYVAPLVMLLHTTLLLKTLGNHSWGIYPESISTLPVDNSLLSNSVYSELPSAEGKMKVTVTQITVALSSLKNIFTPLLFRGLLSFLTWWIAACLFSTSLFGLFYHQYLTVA
# UniProt Q96I45: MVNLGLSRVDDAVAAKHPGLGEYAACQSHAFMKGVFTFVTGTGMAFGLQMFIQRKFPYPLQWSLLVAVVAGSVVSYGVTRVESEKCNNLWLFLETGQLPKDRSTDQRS
# UniProt Q8TBQ9: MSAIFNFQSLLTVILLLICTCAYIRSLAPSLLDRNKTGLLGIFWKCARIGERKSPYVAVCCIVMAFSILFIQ
# UniProt Q9BTF0: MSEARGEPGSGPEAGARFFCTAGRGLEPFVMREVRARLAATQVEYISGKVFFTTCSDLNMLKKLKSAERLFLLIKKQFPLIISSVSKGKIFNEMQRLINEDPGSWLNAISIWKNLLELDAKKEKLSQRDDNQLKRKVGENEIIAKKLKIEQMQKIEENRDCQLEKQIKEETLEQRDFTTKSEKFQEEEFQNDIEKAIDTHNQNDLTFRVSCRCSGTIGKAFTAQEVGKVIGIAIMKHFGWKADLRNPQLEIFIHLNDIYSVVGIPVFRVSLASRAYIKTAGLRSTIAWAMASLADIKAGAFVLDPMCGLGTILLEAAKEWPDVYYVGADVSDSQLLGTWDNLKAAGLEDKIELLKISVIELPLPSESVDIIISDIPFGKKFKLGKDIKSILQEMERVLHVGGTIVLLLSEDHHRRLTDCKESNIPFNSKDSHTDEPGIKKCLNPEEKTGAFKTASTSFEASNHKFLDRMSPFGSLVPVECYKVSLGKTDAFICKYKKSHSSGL
# UniProt Q86UB9: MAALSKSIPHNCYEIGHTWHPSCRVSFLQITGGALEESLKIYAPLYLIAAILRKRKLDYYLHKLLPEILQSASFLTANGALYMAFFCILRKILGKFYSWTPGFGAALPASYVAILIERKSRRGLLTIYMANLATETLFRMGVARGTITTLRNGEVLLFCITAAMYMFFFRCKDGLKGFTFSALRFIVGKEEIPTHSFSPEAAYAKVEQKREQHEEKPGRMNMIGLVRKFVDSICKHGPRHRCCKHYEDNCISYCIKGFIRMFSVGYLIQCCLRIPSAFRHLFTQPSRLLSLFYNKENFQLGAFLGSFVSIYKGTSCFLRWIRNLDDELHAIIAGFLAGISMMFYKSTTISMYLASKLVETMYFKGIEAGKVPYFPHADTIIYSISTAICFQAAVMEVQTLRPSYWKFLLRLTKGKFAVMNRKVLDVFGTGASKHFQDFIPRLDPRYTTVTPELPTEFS
# UniProt Q9H1K6: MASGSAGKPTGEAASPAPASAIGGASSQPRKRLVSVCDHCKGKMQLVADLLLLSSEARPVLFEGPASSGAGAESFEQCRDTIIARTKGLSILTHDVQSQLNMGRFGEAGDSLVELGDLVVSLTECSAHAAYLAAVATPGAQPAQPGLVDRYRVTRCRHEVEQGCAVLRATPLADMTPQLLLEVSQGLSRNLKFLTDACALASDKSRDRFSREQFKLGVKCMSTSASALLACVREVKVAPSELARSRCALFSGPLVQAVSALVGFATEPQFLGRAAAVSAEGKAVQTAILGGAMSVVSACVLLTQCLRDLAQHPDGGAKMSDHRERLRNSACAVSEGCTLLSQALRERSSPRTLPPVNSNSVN
# UniProt Q9NX61: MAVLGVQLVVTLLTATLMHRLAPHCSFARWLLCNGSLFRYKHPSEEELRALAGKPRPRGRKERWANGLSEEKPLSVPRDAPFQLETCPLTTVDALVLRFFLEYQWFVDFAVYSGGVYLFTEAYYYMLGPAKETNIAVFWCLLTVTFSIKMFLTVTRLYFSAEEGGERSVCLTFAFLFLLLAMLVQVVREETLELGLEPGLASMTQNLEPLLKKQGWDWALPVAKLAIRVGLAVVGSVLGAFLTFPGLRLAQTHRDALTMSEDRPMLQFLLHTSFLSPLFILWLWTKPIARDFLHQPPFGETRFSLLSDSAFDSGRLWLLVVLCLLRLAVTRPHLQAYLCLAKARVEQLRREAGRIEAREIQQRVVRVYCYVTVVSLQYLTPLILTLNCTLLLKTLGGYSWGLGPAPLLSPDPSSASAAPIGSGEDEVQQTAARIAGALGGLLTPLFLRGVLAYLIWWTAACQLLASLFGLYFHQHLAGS
# UniProt Q9H6X4: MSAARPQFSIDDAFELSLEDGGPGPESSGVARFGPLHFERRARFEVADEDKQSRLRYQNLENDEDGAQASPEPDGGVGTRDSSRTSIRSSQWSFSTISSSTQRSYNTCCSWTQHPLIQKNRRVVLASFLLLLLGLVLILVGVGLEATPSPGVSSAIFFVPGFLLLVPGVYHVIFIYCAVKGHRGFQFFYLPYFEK
# UniProt O15321, whole entry, looked up: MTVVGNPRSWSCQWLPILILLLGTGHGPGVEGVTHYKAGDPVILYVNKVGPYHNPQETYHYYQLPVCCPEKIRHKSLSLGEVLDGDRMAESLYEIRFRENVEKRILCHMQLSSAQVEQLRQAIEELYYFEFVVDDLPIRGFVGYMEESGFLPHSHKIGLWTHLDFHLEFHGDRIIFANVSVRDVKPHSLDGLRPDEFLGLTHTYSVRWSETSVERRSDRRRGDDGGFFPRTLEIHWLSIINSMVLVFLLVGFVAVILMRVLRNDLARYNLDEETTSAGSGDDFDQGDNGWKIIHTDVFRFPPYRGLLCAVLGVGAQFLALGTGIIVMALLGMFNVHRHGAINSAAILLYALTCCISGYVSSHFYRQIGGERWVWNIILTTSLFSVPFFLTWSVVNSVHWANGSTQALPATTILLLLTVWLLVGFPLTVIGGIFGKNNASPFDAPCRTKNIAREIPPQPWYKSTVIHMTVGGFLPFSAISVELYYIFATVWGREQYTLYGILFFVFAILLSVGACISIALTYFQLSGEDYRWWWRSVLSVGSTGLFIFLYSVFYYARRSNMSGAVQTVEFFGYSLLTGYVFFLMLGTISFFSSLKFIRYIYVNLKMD
# UniProt Q04726: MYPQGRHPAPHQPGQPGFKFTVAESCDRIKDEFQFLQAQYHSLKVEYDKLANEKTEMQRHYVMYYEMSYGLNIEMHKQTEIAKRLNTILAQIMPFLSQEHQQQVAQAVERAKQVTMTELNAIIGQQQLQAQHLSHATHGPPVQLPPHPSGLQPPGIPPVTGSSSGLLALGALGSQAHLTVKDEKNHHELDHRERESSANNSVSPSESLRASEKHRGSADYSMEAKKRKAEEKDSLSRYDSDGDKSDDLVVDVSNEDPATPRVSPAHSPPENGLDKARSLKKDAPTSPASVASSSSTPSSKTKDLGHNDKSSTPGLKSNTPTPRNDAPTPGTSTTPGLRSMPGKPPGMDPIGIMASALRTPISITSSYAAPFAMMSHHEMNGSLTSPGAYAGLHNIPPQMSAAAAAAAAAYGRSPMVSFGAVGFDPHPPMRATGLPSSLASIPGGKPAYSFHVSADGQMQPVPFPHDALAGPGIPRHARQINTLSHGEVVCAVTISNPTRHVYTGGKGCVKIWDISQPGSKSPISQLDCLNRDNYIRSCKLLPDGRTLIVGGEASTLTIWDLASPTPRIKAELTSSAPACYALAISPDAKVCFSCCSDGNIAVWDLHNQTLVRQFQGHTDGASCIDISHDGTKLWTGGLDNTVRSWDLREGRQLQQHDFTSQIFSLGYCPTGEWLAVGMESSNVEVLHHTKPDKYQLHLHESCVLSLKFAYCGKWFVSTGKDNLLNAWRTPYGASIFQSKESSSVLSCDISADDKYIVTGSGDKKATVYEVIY
# UniProt Q9P2C4: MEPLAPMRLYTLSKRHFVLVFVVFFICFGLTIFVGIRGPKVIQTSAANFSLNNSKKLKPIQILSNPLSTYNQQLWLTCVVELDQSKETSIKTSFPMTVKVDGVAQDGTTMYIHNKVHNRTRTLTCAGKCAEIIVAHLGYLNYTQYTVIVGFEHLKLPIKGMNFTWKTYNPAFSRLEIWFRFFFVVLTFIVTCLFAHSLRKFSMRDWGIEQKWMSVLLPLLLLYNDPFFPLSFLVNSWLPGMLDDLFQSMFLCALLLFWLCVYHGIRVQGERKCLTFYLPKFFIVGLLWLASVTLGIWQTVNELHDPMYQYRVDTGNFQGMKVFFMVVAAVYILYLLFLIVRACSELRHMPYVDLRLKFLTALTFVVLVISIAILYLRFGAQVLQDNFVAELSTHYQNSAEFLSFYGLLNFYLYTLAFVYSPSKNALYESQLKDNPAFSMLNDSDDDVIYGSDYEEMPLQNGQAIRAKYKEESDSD
# UniProt Q9UDY2: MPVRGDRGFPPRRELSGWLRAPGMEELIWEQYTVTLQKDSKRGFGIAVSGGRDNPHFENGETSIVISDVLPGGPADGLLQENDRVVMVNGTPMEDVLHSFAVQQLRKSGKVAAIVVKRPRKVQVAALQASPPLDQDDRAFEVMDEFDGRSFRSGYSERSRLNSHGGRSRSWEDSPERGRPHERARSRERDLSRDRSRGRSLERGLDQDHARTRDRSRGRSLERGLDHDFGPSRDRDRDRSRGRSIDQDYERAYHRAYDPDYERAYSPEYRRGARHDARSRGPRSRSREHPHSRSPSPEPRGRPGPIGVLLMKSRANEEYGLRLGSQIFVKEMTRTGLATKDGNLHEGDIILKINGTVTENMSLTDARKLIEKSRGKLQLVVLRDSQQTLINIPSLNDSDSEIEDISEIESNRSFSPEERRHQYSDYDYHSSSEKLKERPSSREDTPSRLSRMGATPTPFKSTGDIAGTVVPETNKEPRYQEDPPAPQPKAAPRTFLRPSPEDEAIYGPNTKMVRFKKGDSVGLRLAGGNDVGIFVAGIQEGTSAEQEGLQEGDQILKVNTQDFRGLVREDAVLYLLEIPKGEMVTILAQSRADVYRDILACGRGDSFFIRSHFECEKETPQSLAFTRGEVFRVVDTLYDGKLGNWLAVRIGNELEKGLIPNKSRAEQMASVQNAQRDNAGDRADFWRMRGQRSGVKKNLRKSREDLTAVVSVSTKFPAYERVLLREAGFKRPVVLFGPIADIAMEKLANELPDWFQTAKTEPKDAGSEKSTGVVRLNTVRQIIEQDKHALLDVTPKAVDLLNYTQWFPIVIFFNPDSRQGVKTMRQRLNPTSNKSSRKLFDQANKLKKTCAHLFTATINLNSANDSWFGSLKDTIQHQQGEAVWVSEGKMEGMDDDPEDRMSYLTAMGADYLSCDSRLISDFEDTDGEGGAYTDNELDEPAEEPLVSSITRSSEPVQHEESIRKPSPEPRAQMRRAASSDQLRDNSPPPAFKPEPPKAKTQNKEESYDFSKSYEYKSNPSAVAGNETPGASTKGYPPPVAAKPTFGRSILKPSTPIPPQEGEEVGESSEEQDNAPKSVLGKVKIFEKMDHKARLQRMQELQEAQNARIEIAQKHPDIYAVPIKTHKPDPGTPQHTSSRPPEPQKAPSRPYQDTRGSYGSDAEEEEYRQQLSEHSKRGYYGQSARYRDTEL
# The list shows a part of the results.
# Legend:
# Assay in all cases: log2 fold change, soluble protein after heating vs DMSO (PISA); higher = thermal stabilisation; K562 lysate, 10 uM; active = over 0.2 and 3.5 SD of the protein, either way, in both replicates (recomputed)
# lapatinib = compound: CS(=O)(=O)CCNCc1ccc(-c2ccc3ncnc(Nc4ccc(OCc5cccc(F)c5)c(Cl)c4)c3c2)o1 [lapatinib]
# Summary of the method: (§1)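 Pellets of K562 cells were dounce-homogenised in PBS pH 7.4 with 1 mM MgCl2, and the crude extract was held at 1 mg/mL protein for a 30 min treatment with 10 μM compound. Aliquots were heated for 3 min over 48°C-58°C and pooled before NP-40 was added to 0.5% at 4°C. The supernatant from 21,000xg for 90 min was quantified by TMTpro 16plex LC-MS/MS with channel sums equalised. Values are reported from duplicates as log-two fold change in thermal stability relative to solvent controls.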
# pictilisib = compound: CS(=O)(=O)N1CCN(Cc2cc3nc(-c4cccc5[nH]ncc45)nc(N4CCOCC4)c3s2)CC1 [pictilisib]
# Summary of the method: as §1
# crizotinib = compound: C[C@@H](Oc1cc(-c2cnn(C3CCNCC3)c2)cnc1N)c1c(Cl)ccc(F)c1Cl [crizotinib]
# Summary of the method: as §1
# [1] = compound: C[C@H](C1=CC=C(C=C1)C(=O)NC2=C3C=CNC3=NC=C2)N
# Summary of the method: as §1
# duvelisib = compound: C[C@H](Nc1ncnc2nc[nH]c12)c1cc2cccc(Cl)c2c(=O)n1-c1ccccc1 [duvelisib]
# Summary of the method: as §1
# gandotinib = compound: Cc1cc(Nc2cc(CN3CCOCC3)c3nc(C)c(Cc4ccc(Cl)cc4F)n3n2)n[nH]1 [gandotinib]
# Summary of the method: as §1
# tozasertib = compound: Cc1cc(Nc2cc(N3CCN(C)CC3)nc(Sc3ccc(NC(=O)C4CC4)cc3)n2)n[nH]1 [tozasertib]
# Summary of the method: as §1
# doramapimod = compound: Cc1ccc(-n2nc(C(C)(C)C)cc2NC(=O)Nc2ccc(OCCN3CCOCC3)c3ccccc23)cc1 [doramapimod]
# Summary of the method: as §1
# bafetinib = compound: Cc1ccc(NC(=O)c2ccc(CN3CC[C@H](N(C)C)C3)c(C(F)(F)F)c2)cc1Nc1nccc(-c2cncnc2)n1 [bafetinib]
# Summary of the method: as §1
# [2] = compound: Cc1cccc(CC(=O)N2CCc3c2ccc(-c2cn(C)c4ncnc(N)c24)c3F)n1
# Summary of the method: as §1
# nilotinib = compound: Cc1cn(-c2cc(NC(=O)c3ccc(C)c(Nc4nccc(-c5cccnc5)n4)c3)cc(C(F)(F)F)c2)cn1 [nilotinib]
# Summary of the method: as §1
# [3] = compound: Cc1nc(Nc2n[nH]c3c2CN(C(=O)N[C@H](CN(C)C)c2ccccc2)C3(C)C)c2sccc2n1
# Summary of the method: as §1
# dasatinib = compound: Cc1nc(Nc2ncc(C(=O)Nc3c(C)cccc3Cl)s2)cc(N2CCN(CCO)CC2)n1 [dasatinib]
# Summary of the method: as §1
# [4] = compound: Cc1ncc(-c2ccnc(Nc3ccc(S(C)(=O)=O)cc3)n2)n1C(C)C
# Summary of the method: as §1
# [5] = compound: Cn1cc(-c2ccc3c(c2)CCN3C(=O)Cc2cccc(C(F)(F)F)c2)c2c(N)ncnc21
# Summary of the method: as §1
# quisinostat = compound: Cn1cc(CNCC2CCN(c3ncc(C(=O)NO)cn3)CC2)c2ccccc21 [quisinostat]
# Summary of the method: as §1
# tipifarnib = compound: Cn1cncc1[C@@](N)(c1ccc(Cl)cc1)c1ccc2c(c1)c(-c1cccc(Cl)c1)cc(=O)n2C [tipifarnib]
# Summary of the method: as §1
# [6] = compound: NC(=O)Nc1cc(-c2cccc(F)c2)sc1C(=O)N[C@H]1CCCNC1
# Summary of the method: as §1
# [7] = compound: NC(=O)c1cnc(N[C@@H]2CCCC[C@@H]2N)nc1Nc1cccc(-n2nccn2)c1
# Summary of the method: as §1
# [8] = compound: NC1(c2ccc(-c3nc4ccn5c(=O)[nH]nc5c4cc3-c3ccccc3)cc2)CCC1
# Summary of the method: as §1
Target,log2 fold change (lapatinib),log2 fold change (pictilisib),log2 fold change (crizotinib),log2 fold change [1],log2 fold change (duvelisib),log2 fold change (gandotinib),log2 fold change (tozasertib),log2 fold change (doramapimod),log2 fold change (bafetinib),log2 fold change [2],log2 fold change (nilotinib),log2 fold change [3],log2 fold change (dasatinib),log2 fold change [4],log2 fold change [5],log2 fold change (quisinostat),log2 fold change (tipifarnib),log2 fold change [6],log2 fold change [7],log2 fold change [8]
TMEM165 (UniProt Q9HC07),inactive: -0.007,inactive: 0.026,inactive: -0.015,inactive: -0.062,inactive: -0.011,inactive: 0.106,inactive: -0.028,inactive: 0.017,inactive: -0.017,inactive: 0.09,inactive: -0.067,inactive: 0.033,inactive: 0.023,inactive: 0.044,inactive: 0.033,inactive: -0.039,inactive: 0,inactive: 0.098,inactive: 0.02,inactive: 0.005
TMEM161B (UniProt Q8NDZ6),inactive: -0.057,inactive: -0.05,inactive: 0.007,inactive: 0.009,–,active: -0.289,inactive: 0.009,inactive: -0.03,inactive: 0.007,inactive: 0.077,active: 0.419,inactive: -0.014,–,inactive: 0.053,–,inactive: -0.07,inactive: -0.117,inactive: 0.046,inactive: -0.005,inactive: -0.064
TMEM141 (UniProt Q96I45),inactive: 0.084,inactive: 0,inactive: 0.016,inactive: -0.016,inactive: 0.032,inactive: 0.087,–,inactive: -0.082,inactive: 0.009,inactive: 0.135,inactive: 0.009,inactive: -0.022,inactive: -0.038,inactive: -0.032,inactive: 0.018,inactive: -0.071,inactive: 0.016,inactive: -0.058,inactive: 0.03,inactive: 0
TMEM167A (UniProt Q8TBQ9),inactive: 0.023,inactive: 0.033,inactive: -0.007,inactive: -0.129,inactive: -0.05,inactive: 0.133,inactive: 0.148,inactive: 0.061,inactive: 0.017,inactive: 0.13,inactive: 0.031,inactive: -0.001,inactive: 0.017,inactive: 0.047,inactive: -0.061,inactive: -0.04,inactive: -0.057,inactive: -0.028,inactive: -0.036,inactive: 0.034
TMA16 (UniProt Q96EY4),inactive: -0.017,inactive: -0.022,inactive: -0.018,inactive: -0.033,inactive: -0.019,inactive: -0.028,inactive: 0.015,inactive: 0.016,inactive: -0.051,inactive: 0.036,inactive: -0.062,inactive: 0.012,inactive: 0.004,inactive: -0.007,inactive: 0.003,inactive: -0.032,inactive: 0.041,inactive: -0.001,inactive: -0.005,inactive: -0.003
THUMPD2 (UniProt Q9BTF0),inactive: 0.028,inactive: -0.054,inactive: -0.013,inactive: -0.013,inactive: 0.042,inactive: -0.014,inactive: -0.011,inactive: -0.006,inactive: -0.035,inactive: 0.02,inactive: -0.017,inactive: -0.021,inactive: -0.006,inactive: 0.034,inactive: 0.095,inactive: -0.041,inactive: 0.023,inactive: 0.032,inactive: 0.047,inactive: -0.011
TMEM135 (UniProt Q86UB9),inactive: -0.039,inactive: -0.007,inactive: 0.078,inactive: 0.101,inactive: 0.074,inactive: -0.048,inactive: -0.051,inactive: -0.021,inactive: -0.051,inactive: -0.099,inactive: 0.009,inactive: 0.007,inactive: 0.095,inactive: -0.085,inactive: 0.01,inactive: 0.034,inactive: -0.096,inactive: 0.008,inactive: 0.014,inactive: -0.04
TLN1 (UniProt Q9Y490),inactive: -0.004,inactive: 0,inactive: 0.01,inactive: -0.012,inactive: 0.005,inactive: -0.005,inactive: 0.002,inactive: 0.007,inactive: -0.003,inactive: 0.002,inactive: -0.004,inactive: 0.002,inactive: -0.006,inactive: -0.009,inactive: 0.007,inactive: 0.014,inactive: 0.008,inactive: -0.011,inactive: -0.004,inactive: 0.005
TLNRD1 (UniProt Q9H1K6),inactive: 0.008,inactive: -0.402,inactive: 0.147,–,inactive: 0.032,–,–,inactive: -0.231,inactive: -0.698,–,–,–,inactive: -0.03,–,inactive: 0.046,inactive: -0.152,–,inactive: 0.132,inactive: -0.015,–
TMEM167B (UniProt Q9NRX6),inactive: -0.045,inactive: -0.034,inactive: 0.006,active: -0.339,–,inactive: 0.133,inactive: -0.003,inactive: -0.083,inactive: -0.075,inactive: 0.128,inactive: 0.006,inactive: 0.031,–,inactive: 0.014,–,inactive: -0.016,inactive: -0.013,inactive: 0.027,inactive: 0.005,inactive: -0.019
TMEM161A (UniProt Q9NX61),inactive: -0.206,inactive: -0.038,inactive: -0.067,inactive: 0.066,inactive: 0.032,inactive: -0.363,inactive: 0.047,inactive: -0.015,inactive: 0.064,inactive: -0.031,inactive: -0.054,inactive: -0.091,inactive: -0.001,inactive: 0.019,inactive: 0.103,inactive: 0.007,inactive: 0.054,inactive: 0.05,inactive: -0.107,inactive: 0.017
TMEM134 (UniProt Q9H6X4),inactive: -0.081,–,inactive: -0.106,inactive: -0.064,inactive: 0.278,inactive: -0.086,–,inactive: -0.026,–,inactive: -0.199,–,–,inactive: 0.083,–,inactive: -0.096,inactive: 0.018,–,inactive: -0.075,inactive: 0.052,inactive: -0.17
THOC2 (UniProt H0Y7U4),inactive: -0.011,inactive: 0.016,inactive: 0.011,–,inactive: -0.03,–,–,inactive: 0.138,inactive: -0.051,–,–,–,inactive: 0.028,–,inactive: 0.089,inactive: 0.023,–,inactive: 0.011,inactive: 0.054,–
TM9SF1 (UniProt O15321),inactive: -0.007,inactive: -0.173,inactive: -0.032,–,inactive: -0.045,–,inactive: 0.078,inactive: 0.096,inactive: 0.03,–,inactive: -0.028,inactive: 0.061,inactive: 0.004,inactive: 0.039,inactive: -0.04,inactive: 0.076,inactive: 0.061,inactive: -0.002,inactive: 0.007,inactive: -0.043
THAP9 (UniProt Q9H5L6),inactive: -0.035,inactive: -0.154,inactive: -0.203,active: -0.675,inactive: 0.012,inactive: 0.429,inactive: -0.045,inactive: 0.009,inactive: -0.007,inactive: 0.323,–,–,inactive: 0.025,–,inactive: -0.032,inactive: -0.455,–,inactive: 0.07,inactive: 0.179,–
TLE3 isoform 5 (UniProt Q04726),inactive: 0.011,inactive: 0.127,inactive: 0.001,inactive: -0.409,inactive: 0.031,inactive: -0.062,inactive: -0.089,inactive: -0.061,inactive: 0.084,inactive: 0.084,inactive: 0.142,inactive: -0.174,inactive: -0.007,inactive: -0.06,inactive: 0.028,inactive: -0.102,inactive: 0.05,inactive: -0.009,inactive: 0.024,inactive: 0.058
TMEM181 (UniProt Q9P2C4),inactive: 0.044,inactive: -0.005,inactive: 0.027,inactive: 0.045,inactive: 0.032,inactive: -0.014,inactive: 0.088,inactive: 0.023,inactive: 0.002,inactive: -0.046,–,–,inactive: 0.075,–,inactive: 0.08,inactive: -0.025,–,inactive: -0.008,inactive: 0.02,inactive: -0.048
TJP2 isoform 7 (UniProt Q9UDY2),inactive: -0.04,inactive: -0.037,inactive: -0.023,inactive: -0.062,inactive: 0.037,inactive: -0.068,inactive: 0.005,inactive: 0.049,inactive: -0.055,inactive: 0.045,inactive: -0.037,inactive: 0.019,inactive: -0.022,inactive: -0.013,inactive: 0.044,inactive: 0.021,inactive: 0.033,inactive: -0.018,inactive: 0.007,inactive: -0.027

# 4 consecutive records already listed:
Target,log2 fold change (lapatinib),log2 fold change (pictilisib),log2 fold change (crizotinib),log2 fold change [1],log2 fold change (duvelisib),log2 fold change (gandotinib),log2 fold change (tozasertib),log2 fold change (doramapimod),log2 fold change (bafetinib),log2 fold change [2],log2 fold change (nilotinib),log2 fold change [3],log2 fold change (dasatinib),log2 fold change [4],log2 fold change [5],log2 fold change (quisinostat),log2 fold change (tipifarnib),log2 fold change [6],log2 fold change [7],log2 fold change [8]
TLNRD1 (UniProt Q9H1K6),inactive: 0.008,inactive: -0.402,inactive: 0.147,–,inactive: 0.032,–,–,inactive: -0.231,inactive: -0.698,–,–,–,inactive: -0.03,–,inactive: 0.046,inactive: -0.152,–,inactive: 0.132,inactive: -0.015,–
TMEM167B (UniProt Q9NRX6),inactive: -0.045,inactive: -0.034,inactive: 0.006,active: -0.339,–,inactive: 0.133,inactive: -0.003,inactive: -0.083,inactive: -0.075,inactive: 0.128,inactive: 0.006,inactive: 0.031,–,inactive: 0.014,–,inactive: -0.016,inactive: -0.013,inactive: 0.027,inactive: 0.005,inactive: -0.019
TMEM161A (UniProt Q9NX61),inactive: -0.206,inactive: -0.038,inactive: -0.067,inactive: 0.066,inactive: 0.032,inactive: -0.363,inactive: 0.047,inactive: -0.015,inactive: 0.064,inactive: -0.031,inactive: -0.054,inactive: -0.091,inactive: -0.001,inactive: 0.019,inactive: 0.103,inactive: 0.007,inactive: 0.054,inactive: 0.05,inactive: -0.107,inactive: 0.017
TMEM134 (UniProt Q9H6X4),inactive: -0.081,–,inactive: -0.106,inactive: -0.064,inactive: 0.278,inactive: -0.086,–,inactive: -0.026,–,inactive: -0.199,–,–,inactive: 0.083,–,inactive: -0.096,inactive: 0.018,–,inactive: -0.075,inactive: 0.052,inactive: -0.17
